Publication PMC9563285
These are yes or no findings as the source states them, for the method shown. In cells and extracts the contact can be indirect. Some binding calls cover weakened binding; strength is not graded here.

The chains behind the UniProt entries cited, without tags or fusion partners. Residues count along the entry.
UniProt P24807, residues 27-53: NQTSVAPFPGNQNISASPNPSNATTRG

Key:
[1] = target: phosphorylated epidermal growth factor receptor (pEGFR) (mouse (endogenous in MEF)) (UniProt Q01279); test: co-IP; cytosolic and nuclear extracts of cells treated with or without pyrotinib (1 uM), immunoprecipitated with anti-EGFR or anti-pEGFR antibody, protein-A/G agarose, immunoblot
[2] = target: phosphorylated epidermal growth factor receptor (pEGFR) (mouse (endogenous in MEF)) (UniProt Q01279); test: co-IP; 1 ug anti-pEGFR antibody incubated with whole lysate of MEF-derived cells treated with or without pyrotinib (1 uM), captured on protein-A/G agarose overnight at 4 C, washed 5 times, immunoblot

binding [1]: binds
binding [2]: binds
Substance: Cluster of differentiation 24 (CD24) (from UniProt P24807 27-53)
